# This is one part of the list.
# Columns and labels:
# Test in all cases: glycan array binding signal (z-score within array); higher = stronger binding
# Conditions in all cases: glycan notation: IUPAC condensed, linker removed
# [1] = biological target: Gal(b1-4)GlcNAc(b1-6)Gal(b1-4)GlcNAc
# Summary of the method: (§1)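 Columns mapping to the same glycan were averaged after glycan names were converted to IUPAC-condensed notation. The data come from 3228 arrays in the Consortium for Functional Glycomics database, limited to those with an available protein sequence. Binding is reported as a within-array Z-score averaged across arrays of one protein sequence and across linkers.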
# [2] = biological target: Gal(b1-4)GlcNAc(b1-6)GalNAc
# Summary of the method: as §1
# [3] = biological target: Gal(b1-4)GlcNAc(b1-6)[Gal(b1-3)]GalNAc
# Summary of the method: as §1
# [4] = biological target: Gal(b1-4)GlcNAc(b1-6)[Gal(b1-4)GlcNAc(b1-3)]GalNAc
# Summary of the method: as §1
# Gal(b1-4)GlcNAc6P = biological target: Gal(b1-4)GlcNAc6P
# Summary of the method: as §1
# Gal(b1-6)Gal = biological target: Gal(b1-6)Gal
# Summary of the method: as §1
# Gal3S(b1-3)GalNAc = biological target: Gal3S(b1-3)GalNAc
# Summary of the method: as §1
# Gal3S(b1-3)GlcNAc = biological target: Gal3S(b1-3)GlcNAc
# Summary of the method: as §1
# [5] = biological target: Gal3S(b1-3)[Fuc(a1-4)]GlcNAc
# Summary of the method: as §1
# Gal3S(b1-4)Glc = biological target: Gal3S(b1-4)Glc
# Summary of the method: as §1
# Gal3S(b1-4)Glc6S = biological target: Gal3S(b1-4)Glc6S
# Summary of the method: as §1
# Gal3S(b1-4)GlcNAc = biological target: Gal3S(b1-4)GlcNAc
# Summary of the method: as §1
# [6] = biological target: Gal3S(b1-4)[Fuc(a1-3)]Glc6S
# Summary of the method: as §1
# [7] = biological target: Gal3S(b1-4)[Fuc(a1-3)]GlcNAc
# Summary of the method: as §1
# [8] = biological target: Gal3S(b1-4)[Fuc(a1-3)]GlcNAc6S
# Summary of the method: as §1
# Gal3S4S(b1-4)GlcNAc = biological target: Gal3S4S(b1-4)GlcNAc
# Summary of the method: as §1
# Gal3S6S(b1-4)GlcNAc = biological target: Gal3S6S(b1-4)GlcNAc
# Summary of the method: as §1
# Gal3S6S(b1-4)GlcNAc6S = biological target: Gal3S6S(b1-4)GlcNAc6S
# Summary of the method: as §1
# Gal4S(b1-4)GlcNAc = biological target: Gal4S(b1-4)GlcNAc
# Summary of the method: as §1
# Gal4S6S(b1-4)GlcNAc = biological target: Gal4S6S(b1-4)GlcNAc
# Summary of the method: as §1
# Gal6P(b1-4)GlcNAc = biological target: Gal6P(b1-4)GlcNAc
# Summary of the method: as §1
# Gal6S(b1-3)GlcNAc = biological target: Gal6S(b1-3)GlcNAc
# Summary of the method: as §1
# Gal6S(b1-3)GlcNAc6S = biological target: Gal6S(b1-3)GlcNAc6S
# Summary of the method: as §1
binder,measurement,setting,value
"XTP3-B-MRH2 (Homo sapiens), Q96DZ1 (protein) EFLSGSYCFRGGVGWWKYEFCYGKHVHQYHEDKDSGKTSVVVGTWNQEEHIEWAKKNTARAYHLQDDGTQTVRMVSHFYGNGDICDITDKPRQVTVKLKCKESDSPHAVTVYMLEPHSCQYILGVESPVICKILDTA",glycan array binding signal (z-score),[1],-0.66
same,glycan array binding signal (z-score),[2],-0.837
same,glycan array binding signal (z-score),[3],-0.315
same,glycan array binding signal (z-score),[4],0.934
same,glycan array binding signal (z-score),Gal(b1-4)GlcNAc6P,-1.42
same,glycan array binding signal (z-score),Gal(b1-6)Gal,-0.532
same,glycan array binding signal (z-score),Gal3S(b1-3)GalNAc,1.26
same,glycan array binding signal (z-score),Gal3S(b1-3)GlcNAc,-0.364
same,glycan array binding signal (z-score),[5],0.892
same,glycan array binding signal (z-score),Gal3S(b1-4)Glc,0.107
same,glycan array binding signal (z-score),Gal3S(b1-4)Glc6S,0.874
same,glycan array binding signal (z-score),Gal3S(b1-4)GlcNAc,0.319
same,glycan array binding signal (z-score),[6],2.08
same,glycan array binding signal (z-score),[7],-0.289
same,glycan array binding signal (z-score),[8],0.284
same,glycan array binding signal (z-score),Gal3S4S(b1-4)GlcNAc,-0.385
same,glycan array binding signal (z-score),Gal3S6S(b1-4)GlcNAc,1.19
same,glycan array binding signal (z-score),Gal3S6S(b1-4)GlcNAc6S,0.709
same,glycan array binding signal (z-score),Gal4S(b1-4)GlcNAc,-0.334
same,glycan array binding signal (z-score),Gal4S6S(b1-4)GlcNAc,-0.162
same,glycan array binding signal (z-score),Gal6P(b1-4)GlcNAc,1.11
same,glycan array binding signal (z-score),Gal6S(b1-3)GlcNAc,1.62
same,glycan array binding signal (z-score),Gal6S(b1-3)GlcNAc6S,-1.14

# No new results follow: entries from further up.
binder,measurement,setting,value
"XTP3-B-MRH2 (Homo sapiens), Q96DZ1 (protein) EFLSGSYCFRGGVGWWKYEFCYGKHVHQYHEDKDSGKTSVVVGTWNQEEHIEWAKKNTARAYHLQDDGTQTVRMVSHFYGNGDICDITDKPRQVTVKLKCKESDSPHAVTVYMLEPHSCQYILGVESPVICKILDTA",glycan array binding signal (z-score),Gal4S(b1-4)GlcNAc,-0.334
same,glycan array binding signal (z-score),Gal4S6S(b1-4)GlcNAc,-0.162

# — the supplement of paper PMC8728848
